Test results taken from US20260102413A1, “TREATING PAIN ASSOCIATED WITH CENTRAL SENSITIZATION” (Medicon Pharmaceuticals, Inc., priority 2022, published 2026).
At least one read-out could not be matched to a standard name with certainty.

Tested on: mice with chronic constriction injury of the left sciatic nerve (PTPN)
Assay: von Frey PWT, chronic constriction injury (CCI) model of PTPN, topical compounds
Format: in vivo, mouse
Conditions: left hind paw 3x/day 14 days: ibuprofen 2.5%, naproxen 2.4%, NO-sulindac 5%, HS-sulindac 5%
Experimental: The PWT test was performed following ligation, but prior to treatment to determine baseline values. The PWT was then further measured on day 14.

Row | Structure (SMILES) | PWT, g Mean ± SEM
1 | CC1=C(CC(=O)Oc2ccc(-c3cc(=S)ss3)cc2)c2cc(F)ccc2/C1=C\c1ccc([S+](C)[O-])cc1 (centres unmarked) [HS-sulindac] | 2.30 ± 0.56 g
2 | CC(C)Cc1ccc(C(C)C(=O)O)cc1 (centres unmarked) [Ibuprofen, ibuprofen, reference compound] | 0.53 ± 0.12 g
